Among all 320,000 compounds or so, about 2,100 (0.66%) were called active. Inconclusive results, whose numbers are uncertain, are shown with a selection of clear calls. The call rests on the fitted dose curve; in most records, active means well fitted inhibition curve with a large enough effect in the signal ratio, with a control signal flat (not every such curve was filed as active); inconclusive means small, poorly fitted or top-dose-only effect, or effect the other way, or a change in a side signal; inactive means flat fitted curve, though single readings scatter; the % refers to the signal ratio. A potency beside an inconclusive call is a rough fit, not a confirmed value.
Experiment: qHTS Assay for Lipid Storage Modulators in Drosophila S3 Cells
Settings: BODIPY lipid droplet fluorescence, 18-24 h, cells fed with added oleic acid; lipid storage change, negative = inhibition: at 46.1 µM (top of the series) unless noted
How it was run: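 Drosophila S3 cells got compounds at several concentrations plus oleic acid (400 uM solution). Laser-scanning cytometry with 488 nm excitation read lipid droplets at 500-530 nm and cells at 575-640 nm. Percent activity was relative to 20 uM Triacsin C.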
On the % scale 0 is the no-effect control and ±100 the full control effect; potency means the concentration at half of the fitted maximal effect.

Q: Which lipid storage change, negative = inhibition does the source give for `COc1ccc(/C=C2\Oc3cc(OCC(N)=O)ccc3C2=O)cc1OC` here?
A: inconclusive: -12.5%

Q: Which lipid storage change, negative = inhibition does the source give for `CCn1ncc(Br)c1C(=O)Nc1ccc(OC(F)(F)F)cc1` here?
A: inconclusive: 19.9%

Q: With `Cc1ccc(NC(=O)c2ccco2)c(NC(=O)c2ccccc2)c1` as the molecule, how does the “outcome” value read?
A: inactive [at 46.1 µM]

Q: With `CCCc1cc(=O)[nH]c(SCC(=O)N(CCC#N)c2ccc3c(c2)OCCO3)n1` as the molecule, how does the lipid storage change, negative = inhibition read?
A: inconclusive

Q: For `COc1ccc(Cl)cc1N(CC(=O)NCCSc1ccccn1)S(=O)(=O)c1ccccc1`, which Potency is on record?
A: inconclusive: 29.1 µM [falling, single point]

Q: With `O=C(Nc1nnc(COc2ccc(Cl)cc2)s1)c1ccc([N+](=O)[O-])cc1` as the molecule, how does the lipid storage change, negative = inhibition read?
A: inconclusive: 10.5%

Q: Which lipid storage change, negative = inhibition does the source give for `CCc1nnc(NC(=O)C2CCN(c3nc(C)cc(C)n3)CC2)s1` here?
A: inconclusive: -0.269%

Q: Which lipid storage change, negative = inhibition does the source give for `O=C(Nc1c(F)cc(F)cc1Br)c1cc(-c2ccccc2)on1` here?
A: inconclusive: -6.75%

Q: For `COc1ccccc1C1C(C(N)=O)=C(C)Nc2nc(-c3ccc(Cl)cc3)nn21` (stereo not drawn), which lipid storage change, negative = inhibition is on record?
A: inconclusive: 62.4%

Q: For `O=C(O)c1cccc(N(CCO)CCO)c1`, which lipid storage change, negative = inhibition is on record?
A: inconclusive: -46.6%

Q: Which lipid storage change, negative = inhibition does the source give for `O=C(COc1ccccc1Cl)Nc1ccccc1C(=O)N1CCCCC1` here?
A: inconclusive: -36.6%

Q: With `Cc1ccc(NC(=O)CN2CCc3cc4c(cc3C2C)OCCCO4)cc1` (stereo not drawn) as the molecule, how does the lipid storage change, negative = inhibition read?
A: inconclusive: 68.9%

Q: For `CC(=O)C1C(=O)c2c(cccc2[N+](=O)[O-])C1=Nc1cccc(Cl)c1` (stereo not drawn), which lipid storage change, negative = inhibition is on record?
A: inconclusive: 16.7%

Q: With `CN(C)S(=O)(=O)c1ccc(C(=O)NCCC(=O)N2CCCC2)cc1` as the molecule, how does the lipid storage change, negative = inhibition read?
A: inconclusive: -83.4%

Q: Which Potency does the source give for `O=C(C1=C[C@@H](c2ccc(C(F)(F)F)cc2)C[C@@H](OCc2ccc(CO)cc2)O1)N1CCN(Cc2ccc3c(c2)OCO3)CC1` here?
A: inconclusive: 32.6 µM [falling, single point]

Q: Which lipid storage change, negative = inhibition does the source give for `COc1cc(C#N)c(NC(=O)CN2CCN(CCO)CC2)cc1OC` here?
A: inconclusive: -119%

Q: For `Cc1ccc(C(=O)N2CCC3(CC2)Oc2ccc(F)cc2C(=O)C32CC(c3ccc(Cl)cc3)=NO2)s1` (stereo not drawn), which lipid storage change, negative = inhibition is on record?
A: inconclusive: 16.5%

Q: For `Fc1ccc(NC(=S)N2CCc3ccccc32)cc1`, which Potency is on record?
A: active: 16.4 µM

Q: With `COc1ccc(NC(=O)c2cc3cc(C)ccc3n2C)c(OC)c1` as the molecule, how does the lipid storage change, negative = inhibition read?
A: inconclusive: -1.02%

Q: For `Cc1cc(C(=O)CCC(=O)Nc2ccc(S(N)(=O)=O)cc2)c(C)s1`, which lipid storage change, negative = inhibition is on record?
A: inconclusive: -14.3%

Q: Which lipid storage change, negative = inhibition does the source give for `COc1nc(C)cc(C)c1S(=O)(=O)c1ccc(Cl)cc1` here?
A: inconclusive: 11.1%

Q: With `Cc1cc(C(=O)CSc2nncs2)c(C)n1-c1c(C)n(C)n(-c2ccccc2)c1=O` as the molecule, how does the lipid storage change, negative = inhibition read?
A: inconclusive: -42.4%

Q: With `Cc1ccc(N(CC(O)CN2C(=O)NC(C)(C)C2=O)S(=O)(=O)c2ccc([N+](=O)[O-])cc2)cc1` (stereo not drawn) as the molecule, how does the lipid storage change, negative = inhibition read?
A: inconclusive: 11.9%
